Data as given in PubChem BioAssay (NCATS).
Inconclusive means that the source gave no clear call. Such entries were picked first, then a sample of the others. For some of these results: Where the call is inconclusive, the potency comes from a doubtful curve fit. The source made the active and inactive calls. Unless noted, calls come from the whole dose curve; as a rule, active = well fitted curve in the direction sought with a large enough effect; inconclusive = small, poorly fitted or top-dose-only effect, or another doubt; inactive = no such curve, though single readings can be large; an effect the other way counts as inactive or inconclusive.

What was measured:
[1] = Cytotoxicity counterscreen for NFkB agonists and antagonists (AID 624476)
[2] = qHTS of pediatric cancer cell lines to identify multiple opportunities for drug repurposing: Primary screen for Saos-2 cells (AID 1347097); conditions: Saos-2 viability, CellTiter-Glo ATP luminescence, 48 h; activity change, negative = cytotoxic: at 46 µM (top of the series); note: nearly all actives have a fitted effect of over 40% in size
Outline: (§1)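 Viability was measured as metabolically active cells after 48 hours of treatment, read by CellTiter-Glo luminescence. Compounds were tested at multiple final concentrations, giving concentration-response curves.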

[3] = Primary qHTS for inhibitors of nuclear receptor binding SET domain protein 2 (NSD2) in an isogenic RCH-ACV NSD2 p.E1099K mutant (9B) (AID 1645876); note: nearly all actives have a fitted effect of over 70% in size
[4] = Quantitative High-Throughput drug screen in 47 multiple myeloma cell lines against the NCATS MIPE library collection: H1112_PLB cell viability assay (AID 1918967; note: nearly all actives have a fitted effect of over 30% in size)
Outline: (§2)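 Steps: seed 500 cells per well; pin-transfer MIPE 4.0 library; incubate 48 h at 37C, 5% CO2, humidified; add CellTiter-Glo, 5 min room temperature; read luminescence.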

[5] = Quantitative High-Throughput drug screen in 47 multiple myeloma cell lines against the NCATS MIPE library collection: KMS27_JCRB cell viability assay (AID 1918970); conditions: KMS27 myeloma cells, CellTiter-Glo ATP viability, 48 h; viability (% of DMSO): at 45.8 µM (top of the series); note: nearly all actives have a fitted effect of over 30% in size
Outline: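 CellTiter-Glo luminescence after 48 h drug exposure at 37 °C; 500 cells/well, 1536-well format, pin-tool compound addition; DMSO = 100%, media-only = 0% viability.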

[6] = Quantitative High-Throughput drug screen in 47 multiple myeloma cell lines against the NCATS MIPE library collection: MMM1_PLB cell viability assay (AID 1918976); note: nearly all actives have a fitted effect of over 35% in size
Outline: (§3)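 qHTS format: cells plated (500/well), pin-dosed with MIPE 4.0 compounds, kept 48 h at 37 °C. Readout was CellTiter-Glo luminescence, median RLU.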

[7] = Quantitative High-Throughput drug screen in 47 multiple myeloma cell lines against the NCATS MIPE library collection: OPM2_DSMZ cell viability assay (AID 1919872); note: nearly all actives have a fitted effect of over 30% in size
Outline: as §2

[8] = Quantitative High-Throughput drug screen in 47 multiple myeloma cell lines against the NCATS MIPE library collection: KMS28BM_JCRB cell viability assay (AID 1919874); note: nearly all actives have a fitted effect of over 35% in size
Outline: as §3

[9] = qHTS for identification of novel therapeutic agents for treatment of microphthalmiaassociated transcription factor (MiT) renal cell carcinoma (RCC) (AID 1963991; calls by dose curve); conditions: TFE3-RCC UOK109 viability, CellTiter-Glo, 48 h; active = Z-AUC below -0.8 in all three lines
Outline: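 Curves over 11 concentrations were fitted to CellTiter-Glo luminescence, scaled between empty wells (0%) and DMSO (100%) viability. Cells were UOK109, UOK124 and UOK145 TFE3-fusion RCC lines at 500/well, exposed 48 hours at 37 C.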

[10] = tested on: MCC-26; assay: qHTS assay to identify novel small-molecules to repurpose for Merkel cell carcinoma treatment (AID 1296009); conditions: MCC and control cell lines, CellTiter-Glo viability, 72 h; series mostly up to 46 µM; note: nearly all actives have a fitted effect of over 60% in size
Outline: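 Viability readout: ATP luminescence (CellTiter-Glo) after 72 hr drug exposure at 37 degree celsius. Dose-response format was 8 points for NPC and 11 points for MIPE; data normalized to in-plate controls.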

[11] = qHTS Assay for Identification of Small Molecule Antagonists for NFkB Signaling Pathway. (AID 624479; calls by dose curve;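 note: pathway stimulated with TNF alpha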)
[12] = qHTS of pediatric cancer cell lines to identify multiple opportunities for drug repurposing: Primary screen for TC32 cells (AID 1347089); note: nearly all actives have a fitted effect of over 60% in size
Outline: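 In the primary qHTS, MIPE compounds were tested at 11 concentrations (0.78 nM to 46 µM) and NPC compounds at 8 (0.59 nM to 46 µM) on TC32 cells for 48 h. CellTiter-Glo luminescence gave viability.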

[13] = qHTS of pediatric cancer cell lines to identify multiple opportunities for drug repurposing: Primary screen for SK-N-SH cells (AID 1347098); conditions: SK-N-SH viability, CellTiter-Glo luminescence, 48 h; activity change, negative = cytotoxic: at 57 µM (top of the series); note: nearly all actives have a fitted effect of over 65% in size
Outline: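 Cells (500-1,000/well) rested 5 h, then received compounds for 48 h; metabolically active cells were measured by CellTiter-Glo luminescence. Final concentrations spanned up to 46 µM (MIPE, 11-point) or 0.59 nM-46 µM (NPC, 8-point) in primary screens, 11-point in follow-ups.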

[14] = qHTS of pediatric cancer cell lines to identify multiple opportunities for drug repurposing: Primary screen for control Hh wild type fibroblast cells (AID 1347106); note: nearly all actives have a fitted effect of over 55% in size
Outline: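 Cells (500-1,000/well) in growth media were settled 5 h at 37 degrees C, then given compounds for 48 h. Viability was read as CellTiter-Glo luminescence. Primary runs used MIPE at 11 points (0.78 nM-46 µM) and NPC at 8 points (0.59 nM-46 µM); follow-ups used 11 points.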

[15] = qHTS to identify inhibitors of the type 1 interferon - major histocompatibility complex class I in skeletal muscle: primary screen against the NCATS Mechanism Interrogation Plate v5.0 (MIPE) Libary (AID 1347411); conditions: iHSKM cells + IFN-b, HiBiT-tagged MHC-I luminescence, 24 h; series mostly up to 45.8 µM; note: nearly all actives have a fitted effect of over 65% in size
Outline: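 Luminescence from CRISPR HiBit-tagged endogenous HLA-B in human myoblasts reported MHC class I level after 24 h of IFN-beta (4 ng/ml) plus compound. Compounds ran as 11-point 1:3 series, top 46 uM final.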

[16] = qHTS of pediatric cancer cell lines to identify multiple opportunities for drug repurposing: Primary screen for SJ-GBM2 cells (AID 1347091)
Outline: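 Eight- or eleven-point concentration series, 48 h treatment at 37 degrees C in growth media; readout CellTiter-Glo luminescence. Potency and efficacy were taken from the concentration-response curves.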

[17] = qHTS of pediatric cancer cell lines to identify multiple opportunities for drug repurposing: Primary screen for NB-EBc1 cells (AID 1347095)
Outline: as §1

[18] = qHTS of pediatric cancer cell lines to identify multiple opportunities for drug repurposing: Primary screen for NB1643 cells (AID 1347099); note: nearly all actives have a fitted effect of over 50% in size
Outline: as §1

[19] = qHTS of pediatric cancer cell lines to identify multiple opportunities for drug repurposing: Primary screen for MG 63 (6-TG R) cells (AID 1347105); conditions: MG 63 (6-TG R) viability, CellTiter-Glo, 48 h; activity change, negative = cytotoxic: at 46 µM (top of the series) unless noted; note: nearly all actives have a fitted effect of over 50% in size
Outline: as §1

[20] = Quantitative High-Throughput drug screen in 47 multiple myeloma cell lines against the NCATS MIPE library collection: OCIMY7_PLB cell viability assay (AID 1918987); conditions: OCI-MY7 myeloma viability, CellTiter-Glo ATP, 48 h; viability (% of DMSO): at 45.8 µM (top of the series); note: nearly all actives have a fitted effect of over 65% in size
Outline: as §3

Measured: Potency
Potency is the fitted concentration of half-maximal effect.

CC(C)c1ccc(Cn2ccc3c4c(N)nc(NC5CC5)nc4ccc32)cc1
inconclusive: [9] 16.6 µM [falling, partial curve]
active: [1] 9.35 µM | [2] 4.69 µM | [3] 0.372 µM | [4] 9.35 µM | [5] 0.372 µM | [6] 16.6 µM | [7] 6.62 µM | [8] 1.66 µM | [10] 16.6 µM

NC(=O)c1c(OCc2c(F)cc(Br)cc2F)nsc1NC(=O)NCCCCN1CCCC1
inconclusive: [11] 21.1 µM [inhibitor, single point] | [12] 4.66 µM [cytotoxic, partial curve] | [13] 3.41 µM [cytotoxic, partial curve, poor fit] | [14] 9.35 µM [cytotoxic, full curve, poor fit] | [6] 33.2 µM [cytotoxic, single point] | [8] 26.4 µM [cytotoxic, single point]
inactive: [5]
active: [15] 33 µM

COc1cc(C(C)C)c2c(c1)S(=O)(=O)N(COc1cc(=O)n3cccc(OCCN4CCCCC4)c3n1)C2=O
inconclusive: [1] 37.2 µM [inhibitor, single point] | [17] 37.2 µM [cytotoxic, single point] | [13] 12.1 µM [cytotoxic, partial curve] | [15] 33 µM [inhibitor, partial curve, poor fit] | [6] 2.64 µM [cytotoxic, full curve, poor fit] | [8] 29.6 µM [cytotoxic, single point]
active: [16] 26.4 µM | [2] 26.4 µM | [3] 14.8 µM | [4] 14.8 µM

CC(=O)O[C@@]12CO[C@@H]1C[C@H](O)[C@@]1(C)C(=O)[C@H](O)C3=C(C)[C@@H](OC(=O)[C@H](O)[C@@H](NC(=O)OC(C)(C)C)c4ccccc4)C[C@@](O)([C@@H](OC(=O)c4ccccc4)[C@H]21)C3(C)C
inconclusive: [16] 0.0038 µM [cytotoxic, full curve, poor fit] | [17] 0.0038 µM [cytotoxic, full curve, poor fit] | [2] 0.0009 µM [cytotoxic] | [13] 0.0217 µM [cytotoxic, full curve, poor fit] | [18] 0.0007 µM [cytotoxic] | [19] 0.0008 µM [cytotoxic] | [15] 0.0052 µM [inhibitor, full curve, poor fit] | [10] 0.0047 µM [inhibitor, full curve, poor fit]

Cc1cc(Nc2nc(N[C@@H](C)c3ncc(F)cn3)ncc2Cl)n[nH]1
active: [19] 11.8 µM | [15] 1.04 µM
inconclusive: [12] 26.2 µM [cytotoxic, single point] | [5] 0.0021 µM [rising, full curve, poor fit] | [6] 0.0083 µM [rising, full curve, poor fit] | [20] 6.62 µM [cytotoxic, full curve, poor fit] | [7] 23.5 µM [cytotoxic, partial curve] | [8] 33.2 µM [cytotoxic, single point] | [9] 37.2 µM [falling, single point]

Part of the list above in order of count of non-hydrogen atoms, high to low:
NC(=O)c1c(OCc2c(F)cc(Br)cc2F)nsc1NC(=O)NCCCCN1CCCC1
inconclusive: [11] 21.1 µM [inhibitor, single point] | [12] 4.66 µM [cytotoxic, partial curve] | [13] 3.41 µM [cytotoxic, partial curve, poor fit] | [14] 9.35 µM [cytotoxic, full curve, poor fit] | [6] 33.2 µM [cytotoxic, single point] | [8] 26.4 µM [cytotoxic, single point]
inactive: [5]
active: [15] 33 µM

CC(C)c1ccc(Cn2ccc3c4c(N)nc(NC5CC5)nc4ccc32)cc1
inconclusive: [9] 16.6 µM [falling, partial curve]
active: [1] 9.35 µM | [2] 4.69 µM | [3] 0.372 µM | [4] 9.35 µM | [5] 0.372 µM | [6] 16.6 µM | [7] 6.62 µM | [8] 1.66 µM | [10] 16.6 µM

Cc1cc(Nc2nc(N[C@@H](C)c3ncc(F)cn3)ncc2Cl)n[nH]1
active: [19] 11.8 µM | [15] 1.04 µM
inconclusive: [12] 26.2 µM [cytotoxic, single point] | [5] 0.0021 µM [rising, full curve, poor fit] | [6] 0.0083 µM [rising, full curve, poor fit] | [20] 6.62 µM [cytotoxic, full curve, poor fit] | [7] 23.5 µM [cytotoxic, partial curve] | [8] 33.2 µM [cytotoxic, single point] | [9] 37.2 µM [falling, single point]

The results go on.

CC(=O)Nc1sc2c(c1-c1nc3ccccc3s1)CNC2
inactive: [5]
active: [18] 5.26 µM | [6] 14.8 µM | [8] 14.8 µM
inconclusive: [1] 26.4 µM [inhibitor, single point] | [11] 29.8 µM [inhibitor, single point] | [16] 26.4 µM [cytotoxic, single point] | [4] 16.6 µM [cytotoxic, partial curve] | [20] 23.5 µM [cytotoxic, partial curve, poor fit] | [7] 23.5 µM [cytotoxic, partial curve]

CCN(CC)CCn1c(=O)c(Cc2ccc(OC)cc2)nc2ccccc21
inactive: [11]
inconclusive: [6] 0.0187 µM [rising, full curve] | [20] 37.2 µM [cytotoxic, partial curve, poor fit]

O=S(=O)(N=Cc1c(O)ccc2ccccc12)c1cccs1
inactive: [7]
inconclusive: [16] 20.9 µM [cytotoxic, single point] | [17] 33.2 µM [cytotoxic, single point] | [18] 20.9 µM [cytotoxic, partial curve] | [14] 0.296 µM [cytotoxic, full curve] | [5] 14.8 µM [cytotoxic, partial curve, poor fit] | [6] 0.0033 µM [rising, full curve, poor fit] | [20] 33.2 µM [cytotoxic, partial curve, poor fit] | [8] 29.6 µM [cytotoxic, single point]
